Source: patent publication EP0669979B1 (GENENTECH, INC., dated 2005)
Results are given in words; binding and its absence hold for the method and conditions named. Binding calls can cover weak binding; strength is not graded here.

Biological target: protein encoded by the open reading frame US28 of the human cytomegalovirus genome (human cytomegalovirus)
Experiment: displacement of 125I-HuMIP-1α by 1 µM cold ligand on 293 cells expressing US28

B1: murine MIP-1α (ligand, UniProt P10855 24-92, looked up)
chain: APYGADTPTACCFSYSRKIPRQFIVDYFETSSLCSQPGVIFLTKRNRQICADSKETWVQEYITDLELNA
**Q.** With B1 as the binder, how does the binding read?
**A.** binds
